Assay results: doi:10.1101/2022.10.05.511023 (bioRxiv, 2022)
These are yes or no findings as the source states them, for the method shown. Some entries that bind do so weakly or less than the wild type.

What was measured:
[1] = target: T1, farnesylated GBP1 (guanylate binding protein 1) (human), P32455; assay: absorbance-based light scattering; details: remark: other sources report otherwise
T1 chain: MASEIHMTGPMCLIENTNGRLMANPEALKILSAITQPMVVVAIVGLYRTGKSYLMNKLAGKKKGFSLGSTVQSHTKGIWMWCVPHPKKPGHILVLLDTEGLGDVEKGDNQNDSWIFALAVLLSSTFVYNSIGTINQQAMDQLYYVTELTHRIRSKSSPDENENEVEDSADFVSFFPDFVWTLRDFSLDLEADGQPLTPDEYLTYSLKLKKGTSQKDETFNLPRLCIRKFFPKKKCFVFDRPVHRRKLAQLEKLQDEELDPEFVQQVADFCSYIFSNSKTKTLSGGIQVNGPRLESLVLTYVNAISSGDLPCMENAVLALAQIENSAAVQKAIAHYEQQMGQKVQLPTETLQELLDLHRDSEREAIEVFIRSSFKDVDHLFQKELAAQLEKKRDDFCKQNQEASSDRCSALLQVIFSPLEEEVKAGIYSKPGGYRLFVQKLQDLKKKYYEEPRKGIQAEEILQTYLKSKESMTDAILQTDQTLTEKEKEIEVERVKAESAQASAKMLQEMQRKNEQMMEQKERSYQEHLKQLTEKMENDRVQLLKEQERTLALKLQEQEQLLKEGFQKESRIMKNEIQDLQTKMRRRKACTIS

[2] = target: T1, farnesylated GBP1 (guanylate binding …); assay: dynamic light scattering; details: remark: other sources report otherwise

B1: farnesylated GBP1 (guanylate binding protein 1), P32455 1-592 (protein)
chain: T1 chain
modifications: here or on the partner: farnesylated in vitro (C-terminal farnesyl moiety); farnesylated in vitro (C-terminal farnesyl moiety)
For B1, which binding [1] is on record?
Its binding is “binds”.

What about the binding [2] of the same binder?
The binding was “binds”.
